Library screen at single concentrations

A: 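Whole-parasite assay of Trypanosoma brucei over 72 hours; the read-out is not stated. Concentration: 30 µM. Higher reads as stronger inhibition (inferred: compounds with an IC50 in retests scored well above the rest). Values scatter widely below zero; nearly all retest evidence comes from the higher of the two concentrations used. Size under these conditions: about 64,000 compounds, about 940 of them at 50% or above in at least one test.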
B: 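Cell assay of Leishmania donovani living inside macrophages; the read-out is not stated. Concentration: 30 µM. Direction is inferred from retests: higher values go with stronger inhibition. Size under these conditions: about 69,000 compounds, about 1,000 of them at 50% or above in at least one test.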

Results are given as percent effect. The record does not define 0% and 100%; most values in the screen are far below 50% and negative numbers occur (in some assays of this library far below -100). Compounds were drawn at random from those tested, without regard to their results. Two or more numbers in one place are separate tests of the same structure; such repeats can differ widely.

Compound: O=C1NCCCc2[nH]c(Cc3cccc(Cl)c3)nc21
A: -46.02%
B: 16.75%

Compound: CN(Cc1ccc(F)cc1)C(=O)NCc1nnc2n1CCCCC2
A: -2.507%
B: 5.68%

Compound: Cc1ccc(CN(CC(=O)N2CCOC(C)C2)C2CC2)cc1 (centres unmarked)
B: 10.26%

Compound: O=C1CC(N(C(=O)Cc2csc(-c3ccccc3)n2)C2CC2)C(=O)N1 (centres unmarked)
A: 106%
B: 27.59%

Compound: Cn1cc(-c2nc(CN3CCCCC3Cn3cncn3)cs2)cn1 (centres unmarked)
B: 16.47%

Compound: CNC(=O)c1cc(NC(=O)NC(C)CCc2cccn2C)ccc1F (centres unmarked)
A: -37.46%
B: -11.45%

Compound: CCN1CCCCC1C(=O)N1CCC(OCCOC)CC1 (centres unmarked)
A: -25.49%
B: -16.59%

Compound: CC(C)n1ccc2cc(C(=O)Nc3nc[nH]n3)ccc21
A: -17.78%
B: 23.9% & -13.22%

Compound: CN(C(=O)COC1CCCCC1)C1CCN(CC2CCOC2)CC1 (centres unmarked)
A: -32.53%
B: 4.023%

Compound: CC(C)(C)c1cc(=O)n2c(n1)SCC(C(=O)NCc1ccco1)C2 (centres unmarked)
A: -16.74%
B: -2.49%

Compound: CN(Cc1ccncc1)C(CO)c1cccc(F)c1 (centres unmarked)
A: -28.86%
B: -5.599%

Compound: CC(C)n1nc(CN2CCOCC2)c2c1CN(Cc1ccsc1)C2.O=C(O)C(F)(F)F.O=C(O)C(F)(F)F
A: -31.32%
B: 2.442%

Compound: Cc1occc1C(=O)N1CCCN(Cc2nccn2C(C)C)CC1
A: 53.23%
B: 3.455%

Compound: CN1C[C@@H](N)C[C@H]1C(=O)N1CCC(CCCc2ccccc2)CC1
A: -31.74%
B: 42.23%

Compound: Cc1ccc(CN2CCC3(CC2)CCN(Cc2ccoc2)CC3)cc1.O=C(O)C(F)(F)F.O=C(O)C(F)(F)F
A: 22.41%
B: 75.99%

Compound: CCn1nc(C(C)C)cc1C(=O)N1CCOc2ccc(OC)cc21
A: -226.1%
B: 5.196%

Compound: CCC1CN(C(=O)Nc2cnc3c(cnn3C(C)C)c2)CCO1 (centres unmarked)
A: 17.49%
B: 25.52%

Compound: [H][C@@]12CN(Cc3cccs3)C[C@]1([H])CN(C(=O)c1cnc(C)cn1)C2
A: -1.716%
B: -10.73%

Compound: O=C(O)C(F)(F)F.O=C(O)C(F)(F)F.[H][C@@]12CN(C)CCO[C@]1([H])CN(S(=O)(=O)c1cccnc1)C2
A: -16.46%
B: 19.07%

Compound: O=c1[nH]cc(N2CCCCCC2)c(=O)[nH]1
B: -10.39%

Compound: Cc1ccc(N(C)C2CCN(C(=O)CCc3ccco3)CC2)nn1
A: 12.17%
B: 29.63%

Compound: [H][C@]12CCN(c3ncc(C)cn3)CC[C@@]1([H])S(=O)(=O)N(CCC(C)C)C2
A: 13.68%
B: 14.84%

Compound: CN(Cc1ccc(F)cc1)[C@@H]1CN(S(C)(=O)=O)C[C@H]1O
A: -0.2345%
B: -4.258%

Compound: Cc1ccc(Cl)cc1S(=O)(=O)NCc1cnc(N(C)C)n1C
A: -29.11%
B: 8.687%

Once more, the final 3:

Compound,A,B
[H][C@]12CCN(c3ncc(C)cn3)CC[C@@]1([H])S(=O)(=O)N(CCC(C)C)C2,13.68%,14.84%
CN(Cc1ccc(F)cc1)[C@@H]1CN(S(C)(=O)=O)C[C@H]1O,-0.2345%,-4.258%
Cc1ccc(Cl)cc1S(=O)(=O)NCc1cnc(N(C)C)n1C,-29.11%,8.687%

Measurements from “University of Dundee, Small-Polar-MMV Screening Library” (2021), ChEMBL document CHEMBL3988442.